{"source": "patent US20190321420A1", "about": "“METHOD AND COMPOSITION FOR PREVENTING, TREATING OR RELIEVING BONE DISEASES” (GRAPE KING BIO Ltd., priority 2018, published 2019)", "test_system": "ovariectomized ICR female mice", "assay": "Micro-CT bone tissue analysis of the right distal femur in ovariectomized mice (osteoporosis model)", "type": "in vivo", "details": "32nd day after ovariectomy, GKM3/GKS6 205 mg/kg oral gavage once/day for 28 days, Alen 2.5 mg/kg 3 times a week for 28 days, n = 6", "protocol": "In this embodiment, GKM3 and GKS6 powders were each prepared in a 0.5% (w/v) carboxymethylcellulose (CMC) solution as a suspension with a concentration of 205 mg/mL The vehicle group used 0.5% (w/v) CMC solution. For the positive control group, the anti-osteoporosis drug, alendronate (Alen), was prepared as a 0.25 mg/mL suspension in 0.5% (w/v) CMC solution. Mice were tube-fed 0.1 mL of GKM3 suspension, GKS6 suspension, 0.5% (w/v) CMC solution or Alen suspension per 10 g of body weight.\nBecause bone metabolism is closely related to estrogen, mice with bilateral ovariectomy were used as a model for studying osteoporosis in postmenopausal animals. […]\nComputerized tomography images of the right distal femur of ICR mice were obtained by a micro-computed tomography (micro-CT) scanner (SkyScan 1076, Kontizh, Belgium) with a resolution of 18 μm and were analyzed by a software to obtain the trabecular bone volume density (i.e., bone volume/tissue volume, BV/TV), the trabecular thickness (Tb.Th), the trabecular number (Tb.N), and the trabecular spacing (Tb.Sp). The analyzed position was selected to include the area of 100 pieces under the growth plate but not the cortical bone. […]\nThe obtained data in the experiments were analyzed with one-way analysis of variance (one-way ANOVA) and the Duncan's multiple range test. […]", "note": "Marks after values point to notes of the source that are not given here."}
{"smiles": "NCCCC(O)(P(=O)(O)O)P(=O)(O)O", "note": "[Alen, alendronate]", "values": [{"measurement": "Trabecular bone volume density (BV/TV)", "result": "34.9 ± 2.0* %"}]}
